In the supplement of paper PMC12823440, “Inhibitors supercharge kinase turnover through native proteolytic circuits” (Nature, 2025):
This is one part of the list. Hit calls seldom repeat between salt and free forms of one compound.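 Kinases, fused to nanoluciferase, were expressed in K562 cells; luminescence was measured every 4 h from 2 to 18 h as percent of control (DMSO = 100%, positive control = 0%). A time point is decreased if signal falls significantly (2 sigma). Hits were called by the authors by a rule that is not shown; the count of time points alone does not decide it.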

Protein sequences, listed by entry. Tags and fused reporters are not part of them. Lines headed by an entry give the natural chain unless they say otherwise; changes in a name come on top.
UniProt Q6PHR2: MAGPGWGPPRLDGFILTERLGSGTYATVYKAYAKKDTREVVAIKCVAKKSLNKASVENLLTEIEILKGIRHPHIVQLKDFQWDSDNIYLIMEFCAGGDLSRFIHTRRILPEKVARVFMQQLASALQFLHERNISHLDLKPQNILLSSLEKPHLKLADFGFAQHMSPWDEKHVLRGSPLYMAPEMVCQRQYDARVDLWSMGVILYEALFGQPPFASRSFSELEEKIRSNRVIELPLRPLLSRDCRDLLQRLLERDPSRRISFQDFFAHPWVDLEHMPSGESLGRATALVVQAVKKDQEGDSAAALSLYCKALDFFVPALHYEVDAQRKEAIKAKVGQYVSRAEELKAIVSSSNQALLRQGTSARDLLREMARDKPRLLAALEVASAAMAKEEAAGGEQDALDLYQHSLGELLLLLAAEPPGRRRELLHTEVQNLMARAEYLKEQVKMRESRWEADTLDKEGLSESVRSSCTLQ
UniProt P07949, whole entry, looked up: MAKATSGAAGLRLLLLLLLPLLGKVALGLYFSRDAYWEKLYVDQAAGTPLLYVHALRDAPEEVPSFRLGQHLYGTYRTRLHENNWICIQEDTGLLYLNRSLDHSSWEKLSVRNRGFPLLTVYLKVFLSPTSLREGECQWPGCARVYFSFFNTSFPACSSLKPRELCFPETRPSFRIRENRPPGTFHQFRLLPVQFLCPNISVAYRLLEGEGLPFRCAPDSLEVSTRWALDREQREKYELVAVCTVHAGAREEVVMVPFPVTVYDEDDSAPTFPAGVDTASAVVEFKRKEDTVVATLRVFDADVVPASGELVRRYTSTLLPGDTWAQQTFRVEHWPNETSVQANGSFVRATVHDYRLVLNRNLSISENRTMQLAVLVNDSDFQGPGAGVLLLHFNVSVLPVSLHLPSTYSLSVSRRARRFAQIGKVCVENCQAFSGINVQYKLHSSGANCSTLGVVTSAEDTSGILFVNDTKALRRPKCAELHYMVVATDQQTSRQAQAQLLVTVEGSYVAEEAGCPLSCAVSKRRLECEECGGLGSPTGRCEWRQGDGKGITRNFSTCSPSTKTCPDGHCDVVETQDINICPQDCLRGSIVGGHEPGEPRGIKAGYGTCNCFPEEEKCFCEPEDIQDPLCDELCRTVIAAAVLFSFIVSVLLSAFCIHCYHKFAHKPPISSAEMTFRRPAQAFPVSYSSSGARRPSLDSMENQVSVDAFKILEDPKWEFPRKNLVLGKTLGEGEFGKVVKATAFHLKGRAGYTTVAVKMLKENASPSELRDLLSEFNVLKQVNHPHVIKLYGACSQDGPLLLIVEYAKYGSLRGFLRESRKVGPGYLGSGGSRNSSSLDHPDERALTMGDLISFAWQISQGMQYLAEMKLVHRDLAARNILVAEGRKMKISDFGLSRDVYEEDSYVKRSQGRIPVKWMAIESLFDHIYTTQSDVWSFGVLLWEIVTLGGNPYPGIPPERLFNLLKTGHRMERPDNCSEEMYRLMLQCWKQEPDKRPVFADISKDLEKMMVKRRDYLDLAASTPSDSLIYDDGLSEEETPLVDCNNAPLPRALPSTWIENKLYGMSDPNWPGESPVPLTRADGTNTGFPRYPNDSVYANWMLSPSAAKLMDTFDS
UniProt Q15303, whole entry R711C: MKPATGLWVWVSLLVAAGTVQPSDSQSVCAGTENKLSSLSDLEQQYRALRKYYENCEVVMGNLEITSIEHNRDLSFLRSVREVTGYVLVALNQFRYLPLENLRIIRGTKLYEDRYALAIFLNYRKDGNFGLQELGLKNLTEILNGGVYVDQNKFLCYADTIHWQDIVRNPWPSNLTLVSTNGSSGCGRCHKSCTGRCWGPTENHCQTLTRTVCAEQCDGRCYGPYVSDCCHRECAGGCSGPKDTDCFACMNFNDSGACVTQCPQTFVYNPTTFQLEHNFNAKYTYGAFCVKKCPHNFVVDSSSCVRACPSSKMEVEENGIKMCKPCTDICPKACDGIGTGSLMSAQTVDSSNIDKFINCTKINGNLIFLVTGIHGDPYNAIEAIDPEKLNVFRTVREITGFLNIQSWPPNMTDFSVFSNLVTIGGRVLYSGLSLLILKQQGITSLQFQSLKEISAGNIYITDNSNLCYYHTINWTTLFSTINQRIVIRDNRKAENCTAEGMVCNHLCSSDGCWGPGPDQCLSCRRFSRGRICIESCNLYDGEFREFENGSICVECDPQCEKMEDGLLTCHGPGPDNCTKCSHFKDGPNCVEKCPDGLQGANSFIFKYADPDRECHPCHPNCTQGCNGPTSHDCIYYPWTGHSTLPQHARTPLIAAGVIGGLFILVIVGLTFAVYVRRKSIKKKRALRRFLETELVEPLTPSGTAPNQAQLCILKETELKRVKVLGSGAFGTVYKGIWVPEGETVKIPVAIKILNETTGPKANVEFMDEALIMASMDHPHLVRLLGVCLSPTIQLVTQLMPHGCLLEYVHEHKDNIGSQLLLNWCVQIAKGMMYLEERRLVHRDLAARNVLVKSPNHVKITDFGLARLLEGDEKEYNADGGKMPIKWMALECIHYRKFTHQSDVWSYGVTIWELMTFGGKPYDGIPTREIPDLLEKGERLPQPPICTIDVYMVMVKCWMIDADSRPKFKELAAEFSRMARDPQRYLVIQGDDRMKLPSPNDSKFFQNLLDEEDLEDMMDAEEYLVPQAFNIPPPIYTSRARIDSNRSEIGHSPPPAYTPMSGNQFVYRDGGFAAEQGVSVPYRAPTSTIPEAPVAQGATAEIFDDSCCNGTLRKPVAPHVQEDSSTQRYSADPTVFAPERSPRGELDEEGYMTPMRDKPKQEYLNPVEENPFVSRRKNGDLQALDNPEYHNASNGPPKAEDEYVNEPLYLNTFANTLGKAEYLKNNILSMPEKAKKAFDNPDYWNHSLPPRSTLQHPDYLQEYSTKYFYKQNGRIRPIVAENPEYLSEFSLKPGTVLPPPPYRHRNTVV
UniProt P51813: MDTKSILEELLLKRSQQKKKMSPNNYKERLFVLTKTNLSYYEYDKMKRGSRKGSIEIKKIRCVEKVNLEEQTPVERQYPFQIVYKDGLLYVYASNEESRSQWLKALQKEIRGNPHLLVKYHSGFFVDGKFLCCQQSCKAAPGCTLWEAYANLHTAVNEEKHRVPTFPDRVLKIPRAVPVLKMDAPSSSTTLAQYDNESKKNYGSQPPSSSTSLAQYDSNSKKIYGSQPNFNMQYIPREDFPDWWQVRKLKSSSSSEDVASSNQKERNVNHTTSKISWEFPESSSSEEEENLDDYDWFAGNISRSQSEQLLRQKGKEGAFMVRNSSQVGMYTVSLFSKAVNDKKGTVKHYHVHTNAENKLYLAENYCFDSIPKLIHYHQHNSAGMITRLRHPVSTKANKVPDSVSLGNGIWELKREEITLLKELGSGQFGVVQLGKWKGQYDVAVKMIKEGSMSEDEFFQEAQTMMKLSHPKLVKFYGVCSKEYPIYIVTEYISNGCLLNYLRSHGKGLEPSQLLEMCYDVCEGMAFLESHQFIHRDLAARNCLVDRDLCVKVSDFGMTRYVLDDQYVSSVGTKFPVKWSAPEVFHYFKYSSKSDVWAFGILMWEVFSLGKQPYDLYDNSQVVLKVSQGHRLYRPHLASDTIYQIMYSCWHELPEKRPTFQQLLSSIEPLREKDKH
UniProt Q06187: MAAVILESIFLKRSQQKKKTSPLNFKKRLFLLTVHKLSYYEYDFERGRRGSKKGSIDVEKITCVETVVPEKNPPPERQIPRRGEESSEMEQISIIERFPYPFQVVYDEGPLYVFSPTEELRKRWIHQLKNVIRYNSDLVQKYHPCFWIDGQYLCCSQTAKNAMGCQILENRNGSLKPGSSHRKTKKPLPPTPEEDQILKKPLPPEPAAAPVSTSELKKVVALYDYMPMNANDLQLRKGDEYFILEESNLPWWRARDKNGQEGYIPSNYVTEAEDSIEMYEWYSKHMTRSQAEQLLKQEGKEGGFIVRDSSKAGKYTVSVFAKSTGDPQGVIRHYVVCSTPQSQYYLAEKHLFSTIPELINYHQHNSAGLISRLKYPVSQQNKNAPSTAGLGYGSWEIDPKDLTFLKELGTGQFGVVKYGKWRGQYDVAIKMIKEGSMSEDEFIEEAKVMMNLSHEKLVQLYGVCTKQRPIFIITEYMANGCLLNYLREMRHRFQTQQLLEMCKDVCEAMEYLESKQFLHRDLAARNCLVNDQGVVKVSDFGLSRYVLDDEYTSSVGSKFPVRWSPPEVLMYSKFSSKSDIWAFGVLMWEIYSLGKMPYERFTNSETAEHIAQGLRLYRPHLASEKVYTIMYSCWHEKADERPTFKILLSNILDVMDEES
UniProt P51451: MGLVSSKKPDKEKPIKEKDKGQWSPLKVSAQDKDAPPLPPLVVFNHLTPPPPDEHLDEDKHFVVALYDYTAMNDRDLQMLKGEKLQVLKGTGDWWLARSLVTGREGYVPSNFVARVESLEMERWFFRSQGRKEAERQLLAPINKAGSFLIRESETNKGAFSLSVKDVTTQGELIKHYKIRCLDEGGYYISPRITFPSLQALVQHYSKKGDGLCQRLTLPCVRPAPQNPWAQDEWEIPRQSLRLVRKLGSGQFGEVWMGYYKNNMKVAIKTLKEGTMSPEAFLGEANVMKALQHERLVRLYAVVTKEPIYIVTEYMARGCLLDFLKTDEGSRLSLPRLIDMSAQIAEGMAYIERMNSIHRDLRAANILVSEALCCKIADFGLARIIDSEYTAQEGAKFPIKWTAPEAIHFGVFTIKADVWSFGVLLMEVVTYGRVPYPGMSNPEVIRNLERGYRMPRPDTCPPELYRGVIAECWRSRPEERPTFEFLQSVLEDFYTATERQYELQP
UniProt P21802, whole entry, looked up: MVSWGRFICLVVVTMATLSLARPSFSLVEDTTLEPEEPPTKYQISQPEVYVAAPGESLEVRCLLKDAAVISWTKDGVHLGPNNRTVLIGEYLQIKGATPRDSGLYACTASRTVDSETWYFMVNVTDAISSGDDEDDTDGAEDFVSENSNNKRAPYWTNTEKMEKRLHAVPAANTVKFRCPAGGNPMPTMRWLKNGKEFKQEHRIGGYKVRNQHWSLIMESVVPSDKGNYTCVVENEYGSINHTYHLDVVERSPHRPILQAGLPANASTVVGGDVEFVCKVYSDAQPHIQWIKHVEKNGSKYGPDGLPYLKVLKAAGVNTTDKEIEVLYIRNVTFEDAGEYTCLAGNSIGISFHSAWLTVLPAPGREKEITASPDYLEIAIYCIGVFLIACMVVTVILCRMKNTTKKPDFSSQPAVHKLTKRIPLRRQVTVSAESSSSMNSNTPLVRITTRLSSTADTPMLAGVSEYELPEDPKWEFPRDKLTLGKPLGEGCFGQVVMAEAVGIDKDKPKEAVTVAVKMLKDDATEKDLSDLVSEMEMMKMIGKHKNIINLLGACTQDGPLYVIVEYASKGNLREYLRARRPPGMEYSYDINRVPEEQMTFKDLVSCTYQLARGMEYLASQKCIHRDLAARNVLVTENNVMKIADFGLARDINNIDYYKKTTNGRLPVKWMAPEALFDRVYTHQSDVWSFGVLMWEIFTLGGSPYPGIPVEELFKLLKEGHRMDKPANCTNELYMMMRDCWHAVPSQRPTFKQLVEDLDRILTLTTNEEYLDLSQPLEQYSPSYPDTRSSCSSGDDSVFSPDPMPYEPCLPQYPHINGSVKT
UniProt P31749: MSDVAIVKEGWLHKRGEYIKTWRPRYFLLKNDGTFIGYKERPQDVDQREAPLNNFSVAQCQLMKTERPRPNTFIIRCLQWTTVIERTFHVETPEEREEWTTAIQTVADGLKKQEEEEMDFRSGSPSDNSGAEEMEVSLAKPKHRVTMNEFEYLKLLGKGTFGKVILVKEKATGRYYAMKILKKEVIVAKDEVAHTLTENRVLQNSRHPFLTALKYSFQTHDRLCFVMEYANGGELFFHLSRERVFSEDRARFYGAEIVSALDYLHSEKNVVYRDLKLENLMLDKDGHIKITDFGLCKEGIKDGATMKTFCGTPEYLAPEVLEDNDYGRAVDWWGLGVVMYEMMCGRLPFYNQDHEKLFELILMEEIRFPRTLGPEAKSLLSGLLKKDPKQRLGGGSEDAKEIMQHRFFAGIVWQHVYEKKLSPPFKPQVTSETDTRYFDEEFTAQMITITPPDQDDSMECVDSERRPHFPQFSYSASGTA
UniProt O14965: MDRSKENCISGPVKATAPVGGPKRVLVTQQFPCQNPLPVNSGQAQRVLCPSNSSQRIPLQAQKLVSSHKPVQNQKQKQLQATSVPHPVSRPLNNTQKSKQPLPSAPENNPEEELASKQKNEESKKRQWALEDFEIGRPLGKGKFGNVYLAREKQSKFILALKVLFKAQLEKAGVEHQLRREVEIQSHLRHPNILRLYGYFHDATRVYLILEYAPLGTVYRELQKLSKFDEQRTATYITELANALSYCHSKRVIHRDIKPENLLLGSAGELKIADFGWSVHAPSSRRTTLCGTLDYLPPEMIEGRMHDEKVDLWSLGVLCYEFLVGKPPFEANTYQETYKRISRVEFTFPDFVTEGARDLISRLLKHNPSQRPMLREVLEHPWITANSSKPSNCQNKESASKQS

Experiments:
Assay in all cases: number of time points (of 5) at which kinase-Nluc abundance scored as decreased, DMSO-normalised (count); higher = more persistent destabilization
Remibrutinib = compound: C=CC(=O)N(C)CCOc1c(N)ncnc1-c1cc(F)cc(NC(=O)c2ccc(C3CC3)cc2F)c1C [Remibrutinib]; settings: 10 µM; K562; 2-18 h
Zanubrutinib = compound: C=CC(=O)N1CCC([C@@H]2CCNc3c(C(N)=O)c(-c4ccc(Oc5ccccc5)cc4)nn32)CC1 [Zanubrutinib]; settings: 10 µM; K562; 2-18 h
Ibrutinib = compound: C=CC(=O)N1CCC[C@@H](n2nc(-c3ccc(Oc4ccccc4)cc3)c3c(N)ncnc32)C1 [Ibrutinib]; settings: 2.5 µM; K562; 2-18 h
(2R,5S)-Ritlecitinib = compound: C=CC(=O)N1C[C@@H](Nc2ncnc3[nH]ccc23)CC[C@H]1C [(2R,5S)-Ritlecitinib]; settings: 10 µM; K562; 2-18 h
[1] = compound: C=CC(=O)Nc1cc2c(Nc3ccc(F)c(Cl)c3)ncnc2cc1OCCCN1CCOCC1 [Canertinib (dihydrochloride)]; settings: 2.5 µM; K562; 2-18 h
Canertinib = compound: C=CC(=O)Nc1cc2c(Nc3ccc(F)c(Cl)c3)ncnc2cc1OCCCN1CCOCC1 [Canertinib]; settings: 10 µM; K562; 2-18 h
Acalabrutinib = compound: CC#CC(=O)N1CCC[C@H]1c1nc(-c2ccc(C(=O)Nc3ccccn3)cc2)c2c(N)nccn12 [Acalabrutinib]; settings: 10 µM; K562; 2-18 h
[2] = compound: CC(=O)c1c(C)c2cnc(Nc3ccc(N4CCN(C(=O)CCCCCC(=O)N[C@H](C(=O)N5C[C@H](O)C[C@H]5C(=O)NCc5ccc(-c6scnc6C)cc5)C(C)(C)C)CC4)cn3)nc2n(C2CCCC2)c1=O; settings: 2.5 µM; K562; 2-18 h
[3] = compound: CC(C)(C)n1nc(-c2ccc(Cl)cc2)c2c(N)ncnc21; settings: 10 µM; K562; 2-18 h
[4] = compound: CC(C)N(CCC(=O)c1ccc2ccccc2c1)Cc1ccccc1; settings: 10 µM; K562; 2-18 h
[5] = compound: CC(C)[C@@](C)(O)[C@@H]1CN(c2nc(-c3[nH]nc4ncccc34)c(F)cc2Cl)CCN1; settings: 10 µM; K562; 2-18 h
Torkinib = compound: CC(C)n1nc(-c2cc3cc(O)ccc3[nH]2)c2c(N)ncnc21 [Torkinib]; settings: 2.5 µM; K562; 2-18 h
[6] = compound: CC1(C)C(=O)N([C@H]2CCc3c(O)cccc32)c2nc(Nc3cccc(CN4CCCC4)c3)ncc21; settings: 2.5 µM; K562; 2-18 h
Motesanib (Diphosphate) = compound: CC1(C)CNc2cc(NC(=O)c3cccnc3NCc3ccncc3)ccc21 [Motesanib (Diphosphate)]; settings: 2.5 µM; K562; 2-18 h
Motesanib = compound: CC1(C)CNc2cc(NC(=O)c3cccnc3NCc3ccncc3)ccc21 [Motesanib]; settings: 2.5 µM; K562; 2-18 h
[7] = compound: CCCCCC1CC1CC1CC1CCCCCCCC(=O)OC; settings: 10 µM; K562; 2-18 h
[8] = compound: CCCCCCCCCCCCc1ccc(S(=O)(=O)Nc2nncs2)cc1; settings: 10 µM; K562; 2-18 h
[9] = compound: CCCOc1ccc(C=C2SC(=O)NC2=O)cc1; settings: 10 µM; K562; 2-18 h
Sunitinib = compound: CCN(CC)CCNC(=O)c1c(C)[nH]c(/C=C2\C(=O)Nc3ccc(F)cc32)c1C [Sunitinib]; settings: 2.5 µM; K562; 2-18 h

Row | Target | number of time points (Remibrutinib) | number of time points (Zanubrutinib) | number of time points (Ibrutinib) | number of time points ((2R,5S)-Ritlecitinib) | number of time points [1] | number of time points (Canertinib) | number of time points (Acalabrutinib) | number of time points [2] | number of time points [3] | number of time points [4] | number of time points [5] | number of time points (Torkinib) | number of time points [6] | number of time points (Motesanib (Diphosphate)) | number of time points (Motesanib) | number of time points [7] | number of time points [8] | number of time points [9] | number of time points (Sunitinib)
1 | ULK3 (UniProt Q6PHR2) | 0 | 0 | 0 | 0 | 0 | 0 | 0 | 0 | 0 | 0 | 0 | 0 | 3 | 0 | 0 | 0 | 0 | 0 | 0
2 | RPS6KA1 (UniProt Q15418) | 0 | 0 | 0 | 0 | 0 | 0 | 0 | 0 | 0 | 0 | 0 | 0 | 0 | 0 | 0 | 0 | 0 | 0 | 0
3 | EGFR_G719S (UniProt P00533) | 0 | 0 | 0 | 0 |  |  | 0 | 0 |  | 0 | 3 |  | 3 |  |  | 0 | 0 | 0 | 
4 | PDGFRB (UniProt P09619) | 0 | 0 | 0 | 0 | 0 | 0 | 0 |  |  | 0 | 1 | 0 | 3 | 0 | 0 | 0 | 0 | 0 | 0
5 | RET (UniProt P07949) | 0 | 0 | 0 | 0 | 0 | 0 | 0 |  | 0 | 0 | 0 | 0 | 3 |  |  | 0 | 0 | 0 | 1
6 | ERBB4_R711C (clone: ERBB4_mut) (UniProt Q15303) | 0 | 0 | 0 | 0 |  |  | 0 | 2 | 0 | 0 | 0 | 0 | 4 | 0 | 0 | 0 | 0 | 0 | 0
7 | BMX (UniProt P51813) |  |  |  |  |  |  |  | 1 | 0 | 0 |  |  | 1 | 0 | 0 | 0 | 0 |  | 0
8 | BTK (UniProt Q06187) | 0 |  |  | 0 | 0 | 0 | 0 | 0 | 0 | 0 | 0 | 0 | 0 | 0 | 0 | 0 | 0 | 0 | 0
9 | EGFR (UniProt P00533) | 0 | 0 | 0 | 0 |  |  | 0 | 0 |  | 0 | 2 |  | 2 |  |  | 0 | 0 | 0 | 
10 | FYN (UniProt P06241) | 0 | 0 | 0 | 0 | 0 | 0 | 0 |  | 0 | 0 | 0 | 1 | 3 | 0 | 0 | 0 | 0 | 0 | 3
11 | ALK (UniProt Q9UM73) | 0 | 0 | 0 | 0 | 0 | 0 | 0 |  | 0 | 0 | 2 | 0 | 3 | 0 | 0 | 0 | 0 | 0 | 0
12 | RET_M918T (clone: RET_mut) (UniProt P07949) | 0 | 0 | 0 | 0 | 0 | 0 | 0 |  | 0 | 0 | 0 | 0 | 3 |  |  | 0 | 0 | 0 | 0
13 | AURKB (UniProt Q96GD4) | 0 | 0 | 0 | 0 | 0 | 0 | 0 |  | 0 | 0 | 0 | 4 | 3 | 0 | 0 | 0 | 0 | 0 | 3
14 | CHEK2 (UniProt O96017) | 0 | 0 | 0 | 0 | 0 | 0 | 0 |  | 0 | 0 | 3 | 0 | 0 | 0 | 0 | 0 | 0 | 0 | 0
15 | LYN (UniProt P07948) | 0 | 0 | 0 | 0 | 0 | 0 | 0 |  | 0 | 0 | 0 | 0 |  |  |  | 0 | 0 | 0 | 0
16 | EGFR_L858R (UniProt P00533) | 0 | 0 | 0 | 0 |  |  | 0 | 2 |  | 0 | 0 |  | 3 |  |  | 0 | 0 | 0 | 
17 | SRC (UniProt P12931) | 0 | 0 |  | 0 | 0 | 0 | 0 | 0 | 0 | 0 | 0 |  | 0 | 0 | 0 | 0 | 0 | 0 | 

Row | Target | number of time points (Remibrutinib) | number of time points (Zanubrutinib) | number of time points (Ibrutinib) | number of time points ((2R,5S)-Ritlecitinib) | number of time points [1] | number of time points (Canertinib) | number of time points (Acalabrutinib) | number of time points [2] | number of time points [3] | number of time points [4] | number of time points [5] | number of time points (Torkinib) | number of time points [6] | number of time points (Motesanib (Diphosphate)) | number of time points (Motesanib) | number of time points [7] | number of time points [8] | number of time points [9] | number of time points (Sunitinib)
18 | DDR1 (UniProt Q08345) | 0 | 0 | 0 | 0 | 0 | 0 | 0 |  | 0 | 0 | 2 | 0 | 4 |  |  | 0 | 0 | 0 | 3
19 | EGFR_G719S_T790M (UniProt P00533) | 0 | 0 | 0 | 0 |  |  | 0 | 0 |  | 0 | 0 |  | 3 |  |  | 0 | 0 | 0 | 
20 | FGFR1 (UniProt P11362) | 0 | 0 | 0 | 0 | 0 | 0 | 0 |  | 0 | 0 | 0 | 0 | 2 |  |  | 0 | 0 | 0 | 0
21 | EGFR_T790M (UniProt P00533) | 0 | 0 | 0 | 0 |  |  | 0 | 0 |  | 0 | 0 |  | 0 |  |  | 0 | 0 | 0 | 
22 | FGFR3 (UniProt P22607) | 0 | 0 | 0 | 0 | 0 | 0 | 0 |  | 0 | 0 | 0 | 0 | 2 | 0 | 0 | 0 | 0 | 0 | 0
23 | MAP2K1 (UniProt Q02750) | 0 | 0 | 0 | 0 | 0 | 0 | 0 |  | 0 | 0 | 0 | 0 | 0 | 0 | 0 | 0 | 0 | 0 | 0
24 | BLK (UniProt P51451) | 0 | 0 | 0 | 0 | 0 | 0 | 0 |  | 0 | 0 | 0 | 0 | 3 | 0 | 0 | 0 | 0 | 0 | 1
25 | FGFR2 (UniProt P21802) | 0 | 0 | 0 | 0 | 0 | 0 | 0 |  | 0 | 0 | 3 | 0 | 3 | 0 | 0 | 0 | 0 | 0 | 0
26 | CSF1R (UniProt P07333) | 0 | 0 | 0 | 0 | 0 | 0 | 0 |  | 0 | 0 | 0 | 0 |  |  |  | 0 | 0 | 0 | 0
27 | AKT1 (UniProt P31749) | 0 | 0 | 0 | 0 | 0 | 0 | 0 |  | 0 | 0 | 0 | 0 | 0 | 0 | 0 |  |  | 0 | 0
28 | LCK (UniProt P06239) | 0 | 0 | 0 | 0 |  |  | 0 | 0 |  | 0 | 0 | 0 | 0 |  |  | 0 | 0 | 0 | 
29 | HER2 (UniProt P04626) | 0 | 0 | 0 | 0 |  |  | 0 | 0 | 0 | 0 | 2 | 0 | 3 | 0 | 0 | 0 | 0 | 0 | 0
30 | AURKA (UniProt O14965) | 0 | 0 | 0 | 0 | 0 | 0 | 0 |  | 0 |  | 3 | 0 | 3 | 0 | 0 |  |  | 0 | 0
31 | EGFR_L861Q (UniProt P00533) | 0 | 0 | 0 | 0 |  |  | 0 | 0 |  | 0 | 0 |  | 3 |  |  | 0 | 0 | 0 | 
32 | RAF1 (UniProt P04049) | 0 | 0 | 0 | 0 | 0 | 0 | 0 |  | 0 | 0 | 0 | 0 | 4 | 0 | 0 | 0 | 0 | 0 | 0
33 | EGFR_L718V (UniProt P00533) | 0 | 0 | 0 | 0 |  |  | 0 | 0 |  | 0 | 0 |  | 1 |  |  | 0 | 0 | 0 | 
34 | ABL1 (UniProt P00519) | 0 | 0 | 0 | 0 |  |  | 0 |  |  | 0 | 3 |  |  |  |  | 0 | 0 | 0 | 

A second format for part of the listing above:
Row,Target,number of time points (Remibrutinib),number of time points (Zanubrutinib),number of time points (Ibrutinib),"number of time points ((2R,5S)-Ritlecitinib)",number of time points [1],number of time points (Canertinib),number of time points (Acalabrutinib),number of time points [2],number of time points [3],number of time points [4],number of time points [5],number of time points (Torkinib),number of time points [6],number of time points (Motesanib (Diphosphate)),number of time points (Motesanib),number of time points [7],number of time points [8],number of time points [9],number of time points (Sunitinib)
18,DDR1 (UniProt Q08345),0,0,0,0,0,0,0,,0,0,2,0,4,,,0,0,0,3
19,EGFR_G719S_T790M (UniProt P00533),0,0,0,0,,,0,0,,0,0,,3,,,0,0,0,
20,FGFR1 (UniProt P11362),0,0,0,0,0,0,0,,0,0,0,0,2,,,0,0,0,0
21,EGFR_T790M (UniProt P00533),0,0,0,0,,,0,0,,0,0,,0,,,0,0,0,
22,FGFR3 (UniProt P22607),0,0,0,0,0,0,0,,0,0,0,0,2,0,0,0,0,0,0
23,MAP2K1 (UniProt Q02750),0,0,0,0,0,0,0,,0,0,0,0,0,0,0,0,0,0,0
26,CSF1R (UniProt P07333),0,0,0,0,0,0,0,,0,0,0,0,,,,0,0,0,0
29,HER2 (UniProt P04626),0,0,0,0,,,0,0,0,0,2,0,3,0,0,0,0,0,0
32,RAF1 (UniProt P04049),0,0,0,0,0,0,0,,0,0,0,0,4,0,0,0,0,0,0
